The values below come from PMC6188063.

Protein sequences, listed by entry. Tags and fused reporters are not part of them. Residues count along the entry.
UniProt P08069, residues 31-1367: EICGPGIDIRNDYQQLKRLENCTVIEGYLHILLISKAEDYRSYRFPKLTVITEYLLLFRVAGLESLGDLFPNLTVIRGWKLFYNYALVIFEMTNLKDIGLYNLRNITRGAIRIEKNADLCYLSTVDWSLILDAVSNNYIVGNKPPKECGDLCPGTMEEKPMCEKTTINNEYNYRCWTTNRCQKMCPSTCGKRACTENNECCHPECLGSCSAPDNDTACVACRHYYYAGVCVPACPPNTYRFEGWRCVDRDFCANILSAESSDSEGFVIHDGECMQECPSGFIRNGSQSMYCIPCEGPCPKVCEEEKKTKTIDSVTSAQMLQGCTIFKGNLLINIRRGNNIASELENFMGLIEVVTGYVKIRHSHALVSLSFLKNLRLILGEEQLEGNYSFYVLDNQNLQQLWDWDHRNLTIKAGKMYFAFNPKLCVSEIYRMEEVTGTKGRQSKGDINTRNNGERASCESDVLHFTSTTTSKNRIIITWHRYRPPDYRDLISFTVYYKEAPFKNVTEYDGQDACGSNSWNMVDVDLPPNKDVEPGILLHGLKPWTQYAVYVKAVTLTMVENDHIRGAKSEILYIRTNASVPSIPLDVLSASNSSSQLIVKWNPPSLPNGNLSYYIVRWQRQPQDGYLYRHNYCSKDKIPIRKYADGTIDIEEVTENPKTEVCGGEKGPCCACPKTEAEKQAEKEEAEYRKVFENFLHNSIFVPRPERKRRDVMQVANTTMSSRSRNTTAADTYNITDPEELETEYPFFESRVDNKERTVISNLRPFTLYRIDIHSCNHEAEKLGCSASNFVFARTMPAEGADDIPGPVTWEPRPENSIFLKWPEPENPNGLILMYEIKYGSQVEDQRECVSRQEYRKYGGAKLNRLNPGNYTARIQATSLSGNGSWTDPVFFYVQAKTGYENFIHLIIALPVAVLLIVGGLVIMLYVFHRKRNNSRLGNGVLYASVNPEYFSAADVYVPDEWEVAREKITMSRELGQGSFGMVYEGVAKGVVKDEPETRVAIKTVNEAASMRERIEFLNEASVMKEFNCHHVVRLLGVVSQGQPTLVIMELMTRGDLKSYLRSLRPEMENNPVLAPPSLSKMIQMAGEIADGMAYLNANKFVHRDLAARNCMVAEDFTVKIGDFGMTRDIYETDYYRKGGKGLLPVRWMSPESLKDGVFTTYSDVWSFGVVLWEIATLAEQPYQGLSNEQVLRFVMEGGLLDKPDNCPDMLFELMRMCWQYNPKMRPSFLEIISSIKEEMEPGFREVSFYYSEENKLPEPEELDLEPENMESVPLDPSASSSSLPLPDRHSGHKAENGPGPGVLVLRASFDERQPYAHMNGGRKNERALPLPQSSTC
UniProt P35570: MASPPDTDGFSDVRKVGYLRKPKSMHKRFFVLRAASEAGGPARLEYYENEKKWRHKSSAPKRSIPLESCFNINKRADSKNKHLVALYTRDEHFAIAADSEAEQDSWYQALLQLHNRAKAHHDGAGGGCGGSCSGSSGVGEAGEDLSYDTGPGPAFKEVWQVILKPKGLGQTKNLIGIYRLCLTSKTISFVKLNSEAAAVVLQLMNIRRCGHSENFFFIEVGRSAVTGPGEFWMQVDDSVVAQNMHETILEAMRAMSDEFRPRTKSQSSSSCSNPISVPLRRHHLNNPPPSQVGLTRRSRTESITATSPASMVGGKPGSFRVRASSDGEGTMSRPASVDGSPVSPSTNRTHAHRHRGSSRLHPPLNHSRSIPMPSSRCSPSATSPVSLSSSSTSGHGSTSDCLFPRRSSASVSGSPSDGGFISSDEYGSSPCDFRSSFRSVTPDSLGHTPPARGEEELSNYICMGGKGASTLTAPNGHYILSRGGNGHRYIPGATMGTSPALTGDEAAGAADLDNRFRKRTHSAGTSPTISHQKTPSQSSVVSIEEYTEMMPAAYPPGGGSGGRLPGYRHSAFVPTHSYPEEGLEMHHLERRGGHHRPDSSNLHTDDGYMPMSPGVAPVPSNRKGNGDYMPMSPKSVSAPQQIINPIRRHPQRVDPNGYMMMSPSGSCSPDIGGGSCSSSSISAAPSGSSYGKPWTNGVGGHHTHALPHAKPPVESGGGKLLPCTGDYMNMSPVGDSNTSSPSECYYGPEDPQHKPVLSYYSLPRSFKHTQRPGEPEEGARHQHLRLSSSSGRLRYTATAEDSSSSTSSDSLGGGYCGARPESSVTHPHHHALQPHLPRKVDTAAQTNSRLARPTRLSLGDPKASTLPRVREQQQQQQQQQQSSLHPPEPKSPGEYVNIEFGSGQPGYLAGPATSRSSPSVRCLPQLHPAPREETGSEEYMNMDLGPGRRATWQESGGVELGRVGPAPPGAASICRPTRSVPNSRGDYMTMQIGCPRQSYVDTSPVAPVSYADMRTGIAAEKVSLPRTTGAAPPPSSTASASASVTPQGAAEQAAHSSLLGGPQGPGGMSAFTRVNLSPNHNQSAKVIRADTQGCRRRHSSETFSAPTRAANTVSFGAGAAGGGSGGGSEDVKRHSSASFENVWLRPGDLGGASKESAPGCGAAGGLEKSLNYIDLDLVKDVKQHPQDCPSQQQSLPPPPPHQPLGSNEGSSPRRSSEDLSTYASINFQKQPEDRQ
UniProt P35568: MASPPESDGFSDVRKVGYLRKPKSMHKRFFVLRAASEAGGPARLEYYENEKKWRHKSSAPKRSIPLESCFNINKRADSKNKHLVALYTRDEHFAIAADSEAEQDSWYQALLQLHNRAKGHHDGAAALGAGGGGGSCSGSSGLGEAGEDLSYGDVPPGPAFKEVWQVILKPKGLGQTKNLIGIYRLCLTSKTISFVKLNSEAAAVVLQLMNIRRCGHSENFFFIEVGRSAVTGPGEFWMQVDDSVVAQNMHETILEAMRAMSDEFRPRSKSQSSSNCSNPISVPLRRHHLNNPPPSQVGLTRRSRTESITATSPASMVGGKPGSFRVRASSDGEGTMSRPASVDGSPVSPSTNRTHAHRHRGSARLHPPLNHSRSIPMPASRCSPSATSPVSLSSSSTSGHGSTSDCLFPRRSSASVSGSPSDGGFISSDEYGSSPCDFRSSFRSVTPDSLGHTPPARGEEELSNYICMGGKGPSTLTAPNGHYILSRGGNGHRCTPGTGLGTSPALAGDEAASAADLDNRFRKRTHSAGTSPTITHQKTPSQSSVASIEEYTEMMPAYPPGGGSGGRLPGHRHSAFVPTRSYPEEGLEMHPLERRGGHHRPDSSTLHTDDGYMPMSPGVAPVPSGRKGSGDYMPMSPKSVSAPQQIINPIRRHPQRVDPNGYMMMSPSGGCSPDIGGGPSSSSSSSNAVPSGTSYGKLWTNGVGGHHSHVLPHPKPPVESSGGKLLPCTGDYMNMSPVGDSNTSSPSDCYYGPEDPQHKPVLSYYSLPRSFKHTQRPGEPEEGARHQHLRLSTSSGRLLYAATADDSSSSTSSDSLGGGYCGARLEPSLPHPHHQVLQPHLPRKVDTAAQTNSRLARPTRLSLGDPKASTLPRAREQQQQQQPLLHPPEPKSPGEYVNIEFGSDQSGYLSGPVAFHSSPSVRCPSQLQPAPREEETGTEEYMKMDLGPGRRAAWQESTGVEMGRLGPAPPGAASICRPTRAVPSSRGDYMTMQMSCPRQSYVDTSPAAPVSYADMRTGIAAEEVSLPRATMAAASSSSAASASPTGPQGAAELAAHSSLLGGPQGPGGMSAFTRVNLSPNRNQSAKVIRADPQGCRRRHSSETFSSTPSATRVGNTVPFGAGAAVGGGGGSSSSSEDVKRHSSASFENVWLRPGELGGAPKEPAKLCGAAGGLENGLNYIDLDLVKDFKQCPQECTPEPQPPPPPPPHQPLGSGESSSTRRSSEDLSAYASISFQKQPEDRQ
UniProt Q93008: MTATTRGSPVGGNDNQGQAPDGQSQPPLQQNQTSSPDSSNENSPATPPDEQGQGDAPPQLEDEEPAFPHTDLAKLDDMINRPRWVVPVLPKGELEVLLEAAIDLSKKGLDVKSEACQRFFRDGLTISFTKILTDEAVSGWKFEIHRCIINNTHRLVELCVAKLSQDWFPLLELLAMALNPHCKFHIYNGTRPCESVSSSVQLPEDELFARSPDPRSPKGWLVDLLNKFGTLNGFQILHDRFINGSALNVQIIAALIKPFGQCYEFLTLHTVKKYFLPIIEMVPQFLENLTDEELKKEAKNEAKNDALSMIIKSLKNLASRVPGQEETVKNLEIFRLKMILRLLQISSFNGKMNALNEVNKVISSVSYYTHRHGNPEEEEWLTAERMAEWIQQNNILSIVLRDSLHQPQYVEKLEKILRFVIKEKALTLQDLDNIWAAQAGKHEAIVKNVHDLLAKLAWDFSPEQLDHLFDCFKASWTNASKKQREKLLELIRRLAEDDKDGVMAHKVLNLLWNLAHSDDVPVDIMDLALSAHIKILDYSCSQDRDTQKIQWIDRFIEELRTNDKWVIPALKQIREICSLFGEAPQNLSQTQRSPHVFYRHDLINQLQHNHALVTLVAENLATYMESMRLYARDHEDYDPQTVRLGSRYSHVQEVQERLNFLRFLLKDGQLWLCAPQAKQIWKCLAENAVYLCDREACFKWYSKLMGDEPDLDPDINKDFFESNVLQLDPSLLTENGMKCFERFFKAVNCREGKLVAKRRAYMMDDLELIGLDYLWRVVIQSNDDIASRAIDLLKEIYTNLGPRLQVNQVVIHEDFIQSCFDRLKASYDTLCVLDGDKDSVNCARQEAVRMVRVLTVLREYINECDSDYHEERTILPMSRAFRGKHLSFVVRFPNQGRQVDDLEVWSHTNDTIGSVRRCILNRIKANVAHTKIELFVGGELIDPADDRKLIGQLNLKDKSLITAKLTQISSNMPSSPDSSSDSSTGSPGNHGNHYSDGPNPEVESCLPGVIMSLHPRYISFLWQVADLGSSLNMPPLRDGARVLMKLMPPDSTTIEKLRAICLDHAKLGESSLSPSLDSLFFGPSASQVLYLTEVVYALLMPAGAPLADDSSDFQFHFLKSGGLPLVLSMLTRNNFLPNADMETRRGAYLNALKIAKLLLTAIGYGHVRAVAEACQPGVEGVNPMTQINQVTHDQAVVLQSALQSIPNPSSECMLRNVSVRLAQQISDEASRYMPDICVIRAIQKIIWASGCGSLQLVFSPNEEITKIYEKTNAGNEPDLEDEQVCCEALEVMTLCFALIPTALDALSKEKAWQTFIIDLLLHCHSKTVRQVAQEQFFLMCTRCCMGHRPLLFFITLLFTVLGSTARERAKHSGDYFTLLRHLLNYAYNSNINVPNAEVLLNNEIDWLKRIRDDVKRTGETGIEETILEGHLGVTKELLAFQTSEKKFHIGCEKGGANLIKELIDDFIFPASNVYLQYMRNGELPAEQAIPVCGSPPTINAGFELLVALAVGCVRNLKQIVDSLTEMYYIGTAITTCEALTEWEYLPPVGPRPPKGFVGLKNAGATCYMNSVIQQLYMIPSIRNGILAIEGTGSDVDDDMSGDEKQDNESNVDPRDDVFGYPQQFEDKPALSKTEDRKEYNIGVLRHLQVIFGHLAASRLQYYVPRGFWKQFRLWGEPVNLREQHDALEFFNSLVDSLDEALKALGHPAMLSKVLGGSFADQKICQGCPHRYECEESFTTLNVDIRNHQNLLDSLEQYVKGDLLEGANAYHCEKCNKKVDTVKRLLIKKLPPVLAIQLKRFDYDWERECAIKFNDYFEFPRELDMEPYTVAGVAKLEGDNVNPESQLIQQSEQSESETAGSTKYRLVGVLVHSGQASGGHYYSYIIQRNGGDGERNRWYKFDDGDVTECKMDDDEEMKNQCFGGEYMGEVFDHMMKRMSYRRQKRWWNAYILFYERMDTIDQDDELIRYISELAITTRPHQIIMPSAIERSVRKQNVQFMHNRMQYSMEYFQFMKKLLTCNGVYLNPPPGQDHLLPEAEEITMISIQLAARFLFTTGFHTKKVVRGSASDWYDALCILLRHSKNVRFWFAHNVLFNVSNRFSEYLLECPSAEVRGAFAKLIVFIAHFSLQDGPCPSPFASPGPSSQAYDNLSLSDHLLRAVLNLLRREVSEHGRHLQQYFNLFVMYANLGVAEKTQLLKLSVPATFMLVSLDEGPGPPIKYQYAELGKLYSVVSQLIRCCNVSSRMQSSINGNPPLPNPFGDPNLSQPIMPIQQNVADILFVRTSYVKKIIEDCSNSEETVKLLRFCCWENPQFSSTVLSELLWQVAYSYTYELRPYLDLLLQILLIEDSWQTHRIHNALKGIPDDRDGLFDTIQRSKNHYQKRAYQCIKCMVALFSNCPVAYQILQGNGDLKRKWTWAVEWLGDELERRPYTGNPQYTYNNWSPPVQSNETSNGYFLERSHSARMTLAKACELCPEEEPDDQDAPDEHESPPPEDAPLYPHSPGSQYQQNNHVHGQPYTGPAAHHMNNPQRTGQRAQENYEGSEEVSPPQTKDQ

No constants are given. Whether binding was seen depends on the method and setting. In cells and extracts the contact can be indirect. Some binding calls cover weakened binding; strength is not graded here.

The target of one assay is IGF-IR-FLAG (UniProt P08069). As to the kind of experiment: co-IP; HEK293T cells expressing IGF-IR-FLAG or FLAG alone; immunoprecipitation and western blotting with indicated antibodies.
The target of a further assay is FLAG-IRS-1 (rat) (UniProt P35570). Briefly: co-IP; HEK293 cells expressing FLAG-IRS-1 or FLAG-IRS-2, serum-free 24 h; lysates immunoprecipitated with anti-FLAG antibody (FLAG-agarose beads), western blot for USP9X.
For assay [1], the target named is IRS-1, endogenous in PC3 cells (human (endogenous in PC3)) (UniProt P35568). Briefly: co-IP; endogenous proteins of PC3 cells, serum-starved 24 h, without or with 100 ng/ml IGF-I for 5 min; immunoprecipitation and western blotting with indicated antibodies.

In the case of “ubiquitin specific peptidase 9X (USP9X), endogenous in HEK293T cells (from UniProt Q93008 1-2554) (enzyme)”, in the assay with IGF-IR-FLAG, the binding entry was “binds”. “ubiquitin specific peptidase 9X (USP9X), endogenous in HEK293 cells (from UniProt Q93008 1-2554) (enzyme)”: the binding entry with FLAG-IRS-1 (rat) was “binds”. “ubiquitin specific peptidase 9X (USP9X), endogenous in PC3 cells (from UniProt Q93008 1-2554) (enzyme)”: the binding entry in assay [1] was “binds”.
